Experimental data published in PubChem BioAssay AID504408 (Broad Institute, 2011).
Screen size: about 300,000 compounds; about 5,200 (1.7%) were called active. Inconclusive results, whose numbers are uncertain, are shown with a selection of clear calls.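 Rule for the calls: active = mean replicate activation of at least 50% with a set share of replicates each reaching 50%; inconclusive = only one of those two conditions met; inactive = mean below 50% and too few replicates reaching it.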

assay: HSF-1 activators, primary screen, NIH3T3-HGL cells, MG132 stress, luminescence, single point (AID 504408); conditions: NIH3T3-HGL HSF-1 luciferase reporter, MG132, 8 h; at 9 µM; hits give high values; 100% = twice DMSO control signal;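 note: 0% = median of the neutral control wells and 100% = twice that signal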

Row | SMILES | activation
1 | COc1ccc2nc3cc(Cl)ccc3c(Nc3cc(C(C)C)c(O)cc3C)c2c1 | active: 187%
2 | CCc1ccc(CN(C)C(=O)c2cc(COc3c(F)cccc3F)on2)cc1 | inactive: 14.6%
3 | Cc1csc(NC(=O)Nc2cccc(Cl)c2)n1 | active: 55.4%
4 | Cc1cccc2[nH]c(-c3ccc(NC(=O)c4ccco4)cc3)nc12 | inconclusive: 50.6%
5 | CCCN(CC1CC1)C(=O)COC(=O)c1[nH]c(C)c(C(=O)OCC)c1C | inactive: 5%
6 | CN(C)c1nc(NCc2ccccc2)nc(SCC(N)=O)n1 | inactive: -13%
7 | COc1ccc(-c2nn(-c3ccccc3)cc2/C=N/NC(=O)c2cccc(S(=O)(=O)Nc3ccccc3OC)c2)cc1 | inconclusive: 51.5%
8 | CCOC(=O)C1=C(C)NC(C)=C(C(=O)OCC)C1/C=C/c1ccccc1OC | active: 66.6%
9 | COc1ccc(-c2noc(-c3ccoc3C)n2)cc1 | inconclusive: 58.3%
10 | Nc1nc(NCCOCCO)nc(NCC2CCCO2)c1[N+](=O)[O-] (stereo unspecified) | inactive: 6.27%
11 | Cc1oc(-c2ccoc2)nc1CN(CC1CCC(=O)N1)C(C)C (stereo unspecified) | active: 72.1%
12 | CCOC(=O)c1sc(NC(=O)c2cccs2)cc1C | inconclusive: 50.5%
13 | Cc1ccccc1-c1nc(CS(=O)CC(=O)NC2CCCC2)c(C)o1 (stereo unspecified) | inactive: -0.546%
14 | COC(=O)CS(=O)(=O)c1nnc([C@H](Cc2ccccc2)NC(=O)OC(C)(C)C)o1 | inconclusive: 52.2%
15 | NC(=O)c1ccsc1NC(=O)COC(=O)C1CC2CCCC(C1)C2=O (stereo unspecified) | inactive: -5.82%
16 | Brc1ccc(OCc2nc3ccccc3[nH]2)cc1 | inconclusive: 50.8%
17 | CCOC(=O)c1c(C)[nH]c(C(=O)OCc2ccc(F)cc2)c1C | inconclusive: 50.5%
18 | C=C(C(=O)c1ccccc1)C(C)CC(=O)c1ccccc1 (stereo unspecified) | inconclusive: 52.1%
19 | O=C(NNc1c(Cl)cccc1Cl)C1CCC1 | active: 53%
20 | CCCCCC(/C=N/Nc1ccc(S(=O)(=O)N2CCOCC2)cc1[N+](=O)[O-])=C\c1ccccc1 | inactive: -11.8%
21 | Oc1c(Cl)cc(Cl)cc1C=Nc1ccccc1N1CCCC1 | inactive: 10.5%
22 | O=C(CN1c2ccccc2Sc2ccccc21)NNC(=O)Nc1ccc(Cl)cc1 | inconclusive: 52.8%
23 | CCn1c(SCC(=O)Nc2ccc(Cl)cc2)nc2nc3c(cc2c1=O)CCCC3 | inconclusive: 50.2%

Random excerpt: two records from the list, in no set order.
Row | SMILES | activation
20 | CCCCCC(/C=N/Nc1ccc(S(=O)(=O)N2CCOCC2)cc1[N+](=O)[O-])=C\c1ccccc1 | inactive: -11.8%
4 | Cc1cccc2[nH]c(-c3ccc(NC(=O)c4ccco4)cc3)nc12 | inconclusive: 50.6%

Remaining list, next part

Row | SMILES | activation
24 | Clc1ccc(-c2nsc(N3CCOCC3)n2)c(Cl)c1 | active: 62.1%
25 | Cc1cccc([C@@H]2C[C@H]3CN(Cc4cccc(Cl)c4)C(=O)[C@]34CCCN24)n1 | inactive: -23.8%
26 | CCCC(=O)N(Cc1cc2ccccc2[nH]c1=O)c1ccccc1OC | inactive: 14.9%
27 | Clc1ccc(OCCCNCc2ccccc2)c2ccccc12 | inactive: -40%
28 | CCCCOc1ccccc1C(=O)NNC(=S)NC(=O)c1ccccc1[N+](=O)[O-] | inactive: 2.16%
29 | c1ccc2[nH]c3cc4ncnc4cc3nc2c1 | inconclusive: 52.6%
30 | O=C(CSc1n[nH]c(-c2ccccc2)n1)NC(=O)NCc1ccco1 | inconclusive: 51.8%
31 | CC1(C)CN(c2cccc(Br)c2)C1=O | inconclusive: 51.5%
32 | O=c1c2ccccc2nnn1CSc1ccc2ccccc2n1 | inconclusive: 55.2%
33 | O=C1CNC(=S)N1c1nc(-c2ccccc2)cs1 | active: 51.6%
34 | COc1ccc(N(C)C(=O)c2ccc3c(Cl)c4c(nc3c2)CCCC4)c(OC)c1 | inconclusive: 66.5%
35 | COc1ccc(CC(=O)Nc2cc3oc4ccccc4c3cc2OC)cc1 | inconclusive: 52.1%
36 | O=C1/C(=C/c2ccc(F)cc2)Oc2cc(OC(=O)N3CCOCC3)ccc21 | inconclusive: 50.5%
37 | O=C(/C=C/c1ccccc1O)c1ccc(Cl)cc1 | inconclusive: 68.3%
38 | COC(=O)C(CC(=O)c1ccc(Br)cc1)n1ccnc1 (stereo unspecified) | inconclusive: 50.4%
39 | NCCCn1c(C(=O)c2cc(Cl)c(N)c(Cl)c2)c2ccc([N+](=O)[O-])cc2[n+]1[O-] | inconclusive: 53.4%
40 | CC(=O)N/C(=C\c1ccccc1)C(=O)OC/C=C/c1ccccc1 | inconclusive: 50.2%
41 | CCCCn1c(N)c(N(CCOC)C(=O)c2cc(-c3ccccc3)nc3ccccc23)c(=O)[nH]c1=O | inactive: 5.75%
42 | S=C(Nc1ccc(Cl)cc1Cl)N1CCCCC1 | inconclusive: 51.4%
43 | O=C(c1ccccc1Br)N1CCN(c2ccccc2)CC1 | inconclusive: 51.5%
44 | COc1ccccc1N1CCN(CC(=O)N2CCCC2)CC1 | inconclusive: 55.6%
45 | COc1cccc2nc3cc(C)c(C)cc3nc12 | inconclusive: 52.8%
46 | COc1ccc(C2(c3ccc(OC)cc3)NC(=O)N(CC(=O)N(C)c3ccccc3)C2=O)cc1 | inconclusive: 51.4%
